Source: PubChem BioAssay AID1159578 (Peter MacCallum Cancer Centre, 2015)

- Aim: 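siRNA pools altering how lymphatic endothelial cells close a scratch wound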 (primary screen)
- Cells: human lymphatic endothelial cells
- Reagent: siRNA pool against human genes, 40 nM
- Timing: 48 h after transfection
- Detection: 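Cells stained with dye and imaged after a scratch; covered wound area and nuclei counted, duplicates averaged, migration set against mock wells and turned into a robust z-score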
- Reading the numbers: migration robust z-score: higher = faster migration into the scratch; nuclei per well: higher = more cells in the well
- Call rule: 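Migration changed when robust z exceeds 2 or falls below -2 and mean nuclei number is at least 3300; otherwise not called changed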
- Calls: active = migration changed; inactive = no migration change, or too few cells
The whole screen tested about 18,000 reagents; shown is an unselected part. Of all reagents, about 1,030 (5.7%) were called active. 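Inactive calls also include pools with fewer than 3300 nuclei, whose migration was not assessed.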 Raw values are not corrected between plates. Unmarked entries are inactive. Not all columns of the deposit are shown.

target | migration robust z-score | nuclei per well, duplicate mean
ZUP1 (zinc finger containing ubiquitin peptidase 1) | 0.18 | 5672
CD207 (CD207 molecule) | -1.34 | 4968
NPM2 (nucleophosmin/nucleoplasmin 2) | -1.6 | 4170
LAD1 (ladinin 1) | -1.03 | 4592
ZNF552 (zinc finger protein 552) | -1.7 | 5334
THUMPD2 (THUMP domain 2 tRNA and snRNA guanosine methyltransferase) | -0.83 | 3935
SLC17A4 | 0.64 | 5216
HGS (hepatocyte growth factor-regulated tyrosine kinase substrate) | 0.34 | 5800
ISL1 (ISL LIM homeobox 1) | 0.65 | 5446
SBSPON (somatomedin B and thrombospondin type 1 domain containing) | 0.36 | 5581
PMP22 (peripheral myelin protein 22) | 0.06 | 6487
LMTK2 (lemur tail kinase 2) | -1.4 | 4702
C11orf24 (chromosome 11 open reading frame 24) | -0.28 | 6178
GRXCR1 (glutaredoxin and cysteine rich domain containing 1) | 0.68 | 5618
VMO1 (vitelline membrane outer layer 1 homolog) | -0.11 | 7512
RUBCNL (rubicon like autophagy enhancer) | 0.78 | 6233
TNFRSF9 (TNF receptor superfamily member 9) | 0.96 | 4200
STIL (STIL centriolar assembly protein) | 0.09 | 6524
LRP1 (LDL receptor related protein 1) | -1.12 | 4215
ADGRB1 (adhesion G protein-coupled receptor B1) | 0.7 | 7156
TP53RK (TP53 regulating kinase) | -1.68 | 3545
OR5L1 (olfactory receptor family 5 subfamily L member 1) | 2.7 (active) | 6494
IFNA10 (interferon alpha 10) | -0.9 | 5498
ITGAM (integrin subunit alpha M) | 1.91 | 6873
MESP1 (mesoderm posterior bHLH transcription factor 1) | -0.2 | 5458
DEFB113 (defensin beta 113) | 0.7 | 6714
DUS2 (dihydrouridine synthase 2) | 0.86 | 6006
NMS (neuromedin S) | -1.28 | 4691
IFRD2 (interferon related developmental regulator 2) | -1.39 | 5642
CEP41 (centrosomal protein 41) | -1.87 | 4136
ZNF180 (zinc finger protein 180) | 1.4 | 6267
MZB1 (marginal zone B and B1 cell specific protein) | 1.66 | 7036
FAM76A (family with sequence similarity 76 member A) | -1.36 | 5142
CTDP1 (CTD phosphatase 1) | 1.84 | 5452
CLIP4 (CAP-Gly domain containing linker protein family member 4) | 1.34 | 5714
SLC16A8 | -0.29 | 4507
ATP11AUN (ATP11A upstream neighbor lncRNA) | 0.73 | 5642
DHRS11 (dehydrogenase/reductase 11) | -1.58 | 5298
NCAM2 (neural cell adhesion molecule 2) | -1 | 6098

In a second layout: results already given
RUBCNL (rubicon like autophagy enhancer) → migration robust z-score: 0.78; nuclei per well, duplicate mean: 6233
TNFRSF9 (TNF receptor superfamily member 9) → migration robust z-score: 0.96; nuclei per well, duplicate mean: 4200
STIL (STIL centriolar assembly protein) → migration robust z-score: 0.09; nuclei per well, duplicate mean: 6524
LRP1 (LDL receptor related protein 1) → migration robust z-score: -1.12; nuclei per well, duplicate mean: 4215
ADGRB1 (adhesion G protein-coupled receptor B1) → migration robust z-score: 0.7; nuclei per well, duplicate mean: 7156
TP53RK (TP53 regulating kinase) → migration robust z-score: -1.68; nuclei per well, duplicate mean: 3545
